{"sequences": {"note": "Chains of the proteins cited; added tags and fusions are not shown. Residues count along the entry.", "UniProt Q9UM73, 19-1620 I1171N/D1203N limits assumed": "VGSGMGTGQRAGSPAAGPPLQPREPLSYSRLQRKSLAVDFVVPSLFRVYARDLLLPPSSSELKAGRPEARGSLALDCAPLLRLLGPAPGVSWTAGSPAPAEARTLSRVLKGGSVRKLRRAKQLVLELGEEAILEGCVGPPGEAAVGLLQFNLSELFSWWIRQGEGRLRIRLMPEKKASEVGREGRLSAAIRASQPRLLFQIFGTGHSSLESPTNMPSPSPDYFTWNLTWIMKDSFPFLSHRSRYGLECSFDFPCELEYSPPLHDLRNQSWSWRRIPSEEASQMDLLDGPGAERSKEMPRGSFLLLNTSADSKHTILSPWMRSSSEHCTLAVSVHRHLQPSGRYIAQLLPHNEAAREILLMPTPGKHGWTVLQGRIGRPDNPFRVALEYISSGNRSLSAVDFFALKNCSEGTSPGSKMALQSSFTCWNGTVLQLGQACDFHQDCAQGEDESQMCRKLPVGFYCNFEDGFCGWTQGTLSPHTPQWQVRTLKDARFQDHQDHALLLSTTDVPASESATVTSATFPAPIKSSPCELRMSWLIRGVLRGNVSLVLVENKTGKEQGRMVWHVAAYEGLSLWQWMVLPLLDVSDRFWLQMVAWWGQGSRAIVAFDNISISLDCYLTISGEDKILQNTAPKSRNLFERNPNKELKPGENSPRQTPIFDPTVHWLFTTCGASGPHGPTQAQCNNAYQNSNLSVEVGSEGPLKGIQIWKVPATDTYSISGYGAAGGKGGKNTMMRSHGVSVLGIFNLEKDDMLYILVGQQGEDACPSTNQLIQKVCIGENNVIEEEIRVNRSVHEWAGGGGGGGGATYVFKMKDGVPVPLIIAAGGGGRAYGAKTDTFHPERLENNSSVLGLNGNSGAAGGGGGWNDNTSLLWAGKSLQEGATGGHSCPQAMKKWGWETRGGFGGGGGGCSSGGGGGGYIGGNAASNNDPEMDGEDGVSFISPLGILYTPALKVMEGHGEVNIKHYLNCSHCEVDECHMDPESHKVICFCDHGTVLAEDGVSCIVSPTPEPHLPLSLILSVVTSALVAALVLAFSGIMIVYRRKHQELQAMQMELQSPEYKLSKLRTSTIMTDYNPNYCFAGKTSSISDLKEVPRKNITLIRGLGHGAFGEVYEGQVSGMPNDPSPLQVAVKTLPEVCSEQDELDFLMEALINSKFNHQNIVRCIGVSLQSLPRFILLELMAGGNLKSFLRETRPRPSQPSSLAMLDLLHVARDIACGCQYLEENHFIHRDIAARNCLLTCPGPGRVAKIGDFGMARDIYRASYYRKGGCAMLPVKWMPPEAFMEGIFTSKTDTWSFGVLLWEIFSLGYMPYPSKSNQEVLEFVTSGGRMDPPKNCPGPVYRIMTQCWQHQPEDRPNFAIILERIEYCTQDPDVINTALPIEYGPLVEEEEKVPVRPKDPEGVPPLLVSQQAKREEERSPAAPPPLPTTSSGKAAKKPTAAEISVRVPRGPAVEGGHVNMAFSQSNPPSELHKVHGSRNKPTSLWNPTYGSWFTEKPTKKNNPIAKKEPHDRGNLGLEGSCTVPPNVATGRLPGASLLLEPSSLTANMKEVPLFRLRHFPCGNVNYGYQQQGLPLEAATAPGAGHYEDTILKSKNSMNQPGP", "UniProt Q9UM73, 19-1620 L1196M/G1202R limits assumed": "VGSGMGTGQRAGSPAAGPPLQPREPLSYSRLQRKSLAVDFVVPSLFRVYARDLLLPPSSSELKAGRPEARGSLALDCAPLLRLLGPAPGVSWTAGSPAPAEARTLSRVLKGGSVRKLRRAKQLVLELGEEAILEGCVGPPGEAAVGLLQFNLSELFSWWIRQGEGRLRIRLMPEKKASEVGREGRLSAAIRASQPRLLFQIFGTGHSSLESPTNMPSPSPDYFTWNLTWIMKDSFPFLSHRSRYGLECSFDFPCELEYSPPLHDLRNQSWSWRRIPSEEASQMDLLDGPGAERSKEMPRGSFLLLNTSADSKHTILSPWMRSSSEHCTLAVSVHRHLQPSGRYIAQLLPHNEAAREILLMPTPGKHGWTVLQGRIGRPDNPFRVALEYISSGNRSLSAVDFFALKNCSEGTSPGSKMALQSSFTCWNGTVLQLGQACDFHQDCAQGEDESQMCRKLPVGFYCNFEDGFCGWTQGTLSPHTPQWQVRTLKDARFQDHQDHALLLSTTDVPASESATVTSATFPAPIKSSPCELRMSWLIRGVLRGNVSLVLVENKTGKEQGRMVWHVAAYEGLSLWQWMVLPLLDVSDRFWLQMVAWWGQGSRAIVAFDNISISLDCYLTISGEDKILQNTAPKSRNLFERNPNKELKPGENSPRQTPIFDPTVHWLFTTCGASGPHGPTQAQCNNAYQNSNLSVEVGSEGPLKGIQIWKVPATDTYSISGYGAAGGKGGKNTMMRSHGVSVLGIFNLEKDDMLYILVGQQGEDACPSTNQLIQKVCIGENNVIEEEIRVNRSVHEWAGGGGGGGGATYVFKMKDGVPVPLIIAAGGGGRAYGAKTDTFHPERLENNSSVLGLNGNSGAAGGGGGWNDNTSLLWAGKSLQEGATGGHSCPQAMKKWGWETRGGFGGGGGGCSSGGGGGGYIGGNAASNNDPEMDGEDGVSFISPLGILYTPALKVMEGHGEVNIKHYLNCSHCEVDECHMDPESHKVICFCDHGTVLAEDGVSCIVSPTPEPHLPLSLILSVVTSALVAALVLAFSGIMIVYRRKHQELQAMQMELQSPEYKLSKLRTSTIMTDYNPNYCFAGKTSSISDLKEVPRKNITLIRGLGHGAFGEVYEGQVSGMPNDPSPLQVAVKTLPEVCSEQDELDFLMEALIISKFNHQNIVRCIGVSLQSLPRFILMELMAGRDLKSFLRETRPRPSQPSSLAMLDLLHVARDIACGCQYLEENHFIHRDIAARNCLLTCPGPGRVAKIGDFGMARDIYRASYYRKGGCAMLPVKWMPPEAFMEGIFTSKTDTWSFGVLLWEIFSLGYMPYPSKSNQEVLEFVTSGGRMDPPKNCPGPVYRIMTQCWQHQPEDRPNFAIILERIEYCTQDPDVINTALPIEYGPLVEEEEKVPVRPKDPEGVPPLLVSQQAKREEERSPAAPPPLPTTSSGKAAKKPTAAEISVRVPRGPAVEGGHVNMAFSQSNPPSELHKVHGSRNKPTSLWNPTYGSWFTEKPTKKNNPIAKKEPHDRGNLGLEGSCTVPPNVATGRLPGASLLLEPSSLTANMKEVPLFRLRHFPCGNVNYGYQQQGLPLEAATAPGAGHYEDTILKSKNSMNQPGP"}, "source": "patent EP4831180A1", "about": "“NOVEL KINASE INHIBITOR” (dated 2026)", "key": {"[1]": {"system": "Baf3 EML4-ALK V1^G1202R/L1196M cells", "details": "read-out: BaF3 EML4-ALK^G1102R/L1196M, IC50; 3 days incubation, Cell-Titer Glo"}, "[2]": {"system": "Baf3 EML4-ALK V1^I1171N/D1203N cells", "details": "read-out: BaF3 EML4-ALK^I1171N/D1203N IC50; 3 days incubation, Cell-Titer Glo"}, "[3]": {"molecular_target": "His-ALK^G1202R/L1196M (Homo sapiens, UniProt Q9UM73, G1202R/L1196M)", "experiment": "ALK G1202R/L1196M compound mutant kinase inhibitory activity assay (HTRF)", "details": "read-out: ALK^G1202R/L1196M Enzyme, IC50, ATP 4 µM, enzyme 0.5 nM, 1 hour at 23 °C"}, "[4]": {"molecular_target": "His-ALK^I1171N/D1203N (Homo sapiens, UniProt Q9UM73, D1203N/I1171N)", "experiment": "ALK I1171N/D1203N compound mutant kinase inhibitory activity assay (HTRF)", "details": "read-out: ALK^I1171N/D1203N Enzyme, IC50, ATP 1 µM, enzyme 0.3 nM, 1 hour at 23 °C"}}, "note": "pIC50: −log10 of the molar value. The structures given here were assigned with low confidence; some may be wrong."}
{"smiles": "CCn1nc(C#C[C@H](C)N)c2c1-c1cnc(N)c(c1)O[C@H](C)c1cc(F)ccc1-c1nn(C)cc1C2", "values": [{"measurement": "pIC50", "setting": "[1]", "value": "> 8.00"}, {"measurement": "pIC50", "setting": "[2]", "value": "> 8.00"}, {"measurement": "pIC50", "setting": "[3]", "value": "> 8.30"}, {"measurement": "pIC50", "setting": "[4]", "value": "> 8.30"}]}
